# Measurements from the supplement of paper PMC8728848.
# This is one part of the list.
# Columns and labels:
# Assay in all cases: glycan array binding signal (z-score within array); higher = stronger binding
# Details in all cases: glycan notation: IUPAC condensed, linker removed
# [1] = target: Fuc(a1-2)Gal
# How it was run: (§1)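 Glycan array data came from 3228 arrays in the Consortium for Functional Glycomics database, and only arrays with an available protein sequence were kept. Glycan names were put into IUPAC-condensed notation, and columns mapping to the same glycan were averaged. The binding signal is a within-array Z-score, averaged across arrays of one protein sequence run at different concentrations or buffers and across linkers. A negative Z-score can be read as non-binding.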
# [2] = target: Fuc(a1-2)Gal(b1-3)GalNAc
# How it was run: as §1
# [3] = target: Fuc(a1-2)Gal(b1-3)GalNAc(a1-3)[Fuc(a1-2)]Gal(b1-4)Glc
# How it was run: as §1
# [4] = target: Fuc(a1-2)Gal(b1-3)GalNAc(a1-3)[Fuc(a1-2)]Gal(b1-4)GlcNAc
# How it was run: as §1
# [5] = target: Fuc(a1-2)Gal(b1-3)GalNAc(b1-3)Gal
# How it was run: as §1
# [6] = target: Fuc(a1-2)Gal(b1-3)GalNAc(b1-3)Gal(a1-4)Gal(b1-4)Glc
# How it was run: as §1
# [7] = target: Fuc(a1-2)Gal(b1-3)GalNAc(b1-4)[Neu5Ac(a2-3)]Gal(b1-4)Glc
# How it was run: as §1
# [8] = target: Fuc(a1-2)Gal(b1-3)GlcNAc
# How it was run: as §1
# [9] = target: Fuc(a1-2)Gal(b1-3)GlcNAc(b1-2)Man(a1-3)[Fuc(a1-2)Gal(b1-3)GlcNAc(b1-2)Man(a1-6)]Man(b1-4)GlcNAc(b1-4)GlcNAc
# How it was run: as §1
# [10] = target: Fuc(a1-2)Gal(b1-3)GlcNAc(b1-2)Man(a1-3)[Fuc(a1-2)Gal(b1-3)GlcNAc(b1-2)Man(a1-6)]Man(b1-4)GlcNAc(b1-4)[Fuc(a1-6)]GlcNAc
# How it was run: as §1
# [11] = target: Fuc(a1-2)Gal(b1-3)GlcNAc(b1-3)Gal(b1-4)Glc
# How it was run: as §1
# [12] = target: Fuc(a1-2)Gal(b1-3)GlcNAc(b1-3)GalNAc
# How it was run: as §1
# [13] = target: Fuc(a1-2)Gal(b1-3)GlcNAc(b1-3)[Fuc(a1-2)Gal(b1-3)GlcNAc(b1-6)]GalNAc
# How it was run: as §1
# [14] = target: Fuc(a1-2)Gal(b1-3)GlcNAc(b1-3)[Gal(b1-4)GlcNAc(b1-6)]Gal(b1-4)Glc
# How it was run: as §1
# [15] = target: Fuc(a1-2)Gal(b1-3)GlcNAc(b1-3)[Neu5Ac(a2-6)Gal(b1-4)GlcNAc(b1-6)]Gal(b1-4)Glc
# How it was run: as §1
# [16] = target: Fuc(a1-2)Gal(b1-3)GlcNAc6S
# How it was run: as §1
# [17] = target: Fuc(a1-2)Gal(b1-3)[Fuc(a1-4)]GlcNAc
# How it was run: as §1
# [18] = target: Fuc(a1-2)Gal(b1-3)[Fuc(a1-4)]GlcNAc(b1-2)Man(a1-3)[Fuc(a1-2)Gal(b1-3)[Fuc(a1-4)]GlcNAc(b1-2)Man(a1-3)]Man(b1-4)GlcNAc(b1-4)GlcNAc
# How it was run: as §1
# [19] = target: Fuc(a1-2)Gal(b1-3)[Fuc(a1-4)]GlcNAc(b1-2)Man(a1-3)[Fuc(a1-2)Gal(b1-3)[Fuc(a1-4)]GlcNAc(b1-2)Man(a1-6)]Man(b1-4)GlcNAc(b1-4)[Fuc(a1-6)]GlcNAc(b1-4)[Fuc(a1-6)]GlcNAc
# How it was run: as §1
# [20] = target: Fuc(a1-2)Gal(b1-3)[Fuc(a1-4)]GlcNAc(b1-3)[Fuc(a1-3)[Gal(b1-4)]GlcNAc(b1-6)]Gal(b1-4)Glc
# How it was run: as §1
# [21] = target: Fuc(a1-2)Gal(b1-3)[Fuc(a1-4)]GlcNAc(b1-3)[Gal(b1-4)GlcNAc(b1-6)]Gal(b1-4)Glc
# How it was run: as §1
# [22] = target: Fuc(a1-2)Gal(b1-4)Glc
# How it was run: as §1
# [23] = target: Fuc(a1-2)Gal(b1-4)Glc6S
# How it was run: as §1
# [24] = target: Fuc(a1-2)Gal(b1-4)GlcNAc
# How it was run: as §1
# [25] = target: Fuc(a1-2)Gal(b1-4)GlcNAc(b1-2)Man
# How it was run: as §1
# [26] = target: Fuc(a1-2)Gal(b1-4)GlcNAc(b1-2)Man(a1-3)[Fuc(a1-2)Gal(b1-4)GlcNAc(b1-2)Man(a1-6)]Man(b1-4)GlcNAc(b1-4)GlcNAc
# How it was run: as §1
# [27] = target: Fuc(a1-2)Gal(b1-4)GlcNAc(b1-2)Man(a1-3)[Fuc(a1-2)Gal(b1-4)GlcNAc(b1-2)Man(a1-6)]Man(b1-4)GlcNAc(b1-4)[Fuc(a1-6)]GlcNAc
# How it was run: as §1
# [28] = target: Fuc(a1-2)Gal(b1-4)GlcNAc(b1-2)[Fuc(a1-2)Gal(b1-4)GlcNAc(b1-4)]Man(a1-3)[Fuc(a1-2)Gal(b1-4)GlcNAc(b1-2)Man(a1-6)]Man(b1-4)GlcNAc(b1-4)GlcNAc
# How it was run: as §1
# [29] = target: Fuc(a1-2)Gal(b1-4)GlcNAc(b1-3)Gal(b1-4)GlcNAc
# How it was run: as §1
# [30] = target: Fuc(a1-2)Gal(b1-4)GlcNAc(b1-3)Gal(b1-4)GlcNAc(b1-2)Man(a1-3)[Fuc(a1-2)Gal(b1-4)GlcNAc(b1-3)Gal(b1-4)GlcNAc(b1-2)Man(a1-6)]Man(b1-4)GlcNAc(b1-4)GlcNAc
# How it was run: as §1
binder,measurement,setting,value
TAL6-6LysM (Trichoderma atroviride) (protein) AASKLGVPQPAQRDQVNCQLYAVQPNDNCIDISSKNNITYAQLLSWNPSLSSTCSNLASLNSSSICVSNPKGTFSISSNTVGATDIATTTAPVPSPTLDQTTSRCAKYYQVSDGDDCSHLTAQFAITLKDFIFLNSEVWQNCTNLELGYYYCVEPVGYISTYPGYLPTATTKPFNQTSATSLPYDGDPWARFSSNSSVIPIANGTRVDCYSYVYVKNLTENLFADCWNMASMYEITREELVLWNPSLGNDGSSGSNLSGAEASQVASSIAIPTTAPSSITTNLYTYPCTVAANISYCVALVSSTGALPTNTAPPGPHASGEISNCTAWFAPEAYDTCKSILDIFEMSFANFYKMNPSVGPDCSGLAVGTNYCVSTYPNGEDPNDDWDGDDSIPSISPTGIITPTPTQSGMVSNCNKFYDVHSNDGCSAIASSQHVDLSSLYKWNPAIKTDCSGLQASVYVCIGILTTSMSTTSKLPTTTSKPSTTSKPPTGITTPTPTQSGMVKNCNKFYDVHSGDGCSAIASSQKVNLSSFYLWNPAVKTDCSGLQASVFVCIGTLTTSMSTTTSKLPTTTSKPSTTSKPPTGIITPTPTQNGMVKNCNKFYDVHSGDGCSAIASSQKVNLSSFYLWNPAVKTDCSGLQASVFVCVGTATTTTAAGITTPTPTQSGMVSGCNKFYDVHAGDGCSAIASSQKIALSSLYKWNPAVKTDCSGLQASVYICIGVGNAAAARVTGAAASFLEQKLISEEDLNSAVDHHHHHH,glycan array binding signal (z-score),[1],0.952
same,glycan array binding signal (z-score),[2],-0.591
same,glycan array binding signal (z-score),[3],-0.209
same,glycan array binding signal (z-score),[4],-1.77
same,glycan array binding signal (z-score),[5],0.073
same,glycan array binding signal (z-score),[6],-0.121
same,glycan array binding signal (z-score),[7],-0.588
same,glycan array binding signal (z-score),[8],-0.073
same,glycan array binding signal (z-score),[9],-1.23
same,glycan array binding signal (z-score),[10],-0.903
same,glycan array binding signal (z-score),[11],-0.234
same,glycan array binding signal (z-score),[12],-0.595
same,glycan array binding signal (z-score),[13],0.213
same,glycan array binding signal (z-score),[14],0.974
same,glycan array binding signal (z-score),[15],-1.47
same,glycan array binding signal (z-score),[16],0.906
same,glycan array binding signal (z-score),[17],-1.18
same,glycan array binding signal (z-score),[18],-2.41
same,glycan array binding signal (z-score),[19],0.449
same,glycan array binding signal (z-score),[20],-0.675
same,glycan array binding signal (z-score),[21],-0.124
same,glycan array binding signal (z-score),[22],0.31
same,glycan array binding signal (z-score),[23],0.072
same,glycan array binding signal (z-score),[24],1.27
same,glycan array binding signal (z-score),[25],-0.377
same,glycan array binding signal (z-score),[26],0.43
same,glycan array binding signal (z-score),[27],-1.15
same,glycan array binding signal (z-score),[28],0.463
same,glycan array binding signal (z-score),[29],-0.314
same,glycan array binding signal (z-score),[30],-1.4

# A run of entries of the results above, as a working copy:
binder,measurement,setting,value
TAL6-6LysM (Trichoderma atroviride) (protein) AASKLGVPQPAQRDQVNCQLYAVQPNDNCIDISSKNNITYAQLLSWNPSLSSTCSNLASLNSSSICVSNPKGTFSISSNTVGATDIATTTAPVPSPTLDQTTSRCAKYYQVSDGDDCSHLTAQFAITLKDFIFLNSEVWQNCTNLELGYYYCVEPVGYISTYPGYLPTATTKPFNQTSATSLPYDGDPWARFSSNSSVIPIANGTRVDCYSYVYVKNLTENLFADCWNMASMYEITREELVLWNPSLGNDGSSGSNLSGAEASQVASSIAIPTTAPSSITTNLYTYPCTVAANISYCVALVSSTGALPTNTAPPGPHASGEISNCTAWFAPEAYDTCKSILDIFEMSFANFYKMNPSVGPDCSGLAVGTNYCVSTYPNGEDPNDDWDGDDSIPSISPTGIITPTPTQSGMVSNCNKFYDVHSNDGCSAIASSQHVDLSSLYKWNPAIKTDCSGLQASVYVCIGILTTSMSTTSKLPTTTSKPSTTSKPPTGITTPTPTQSGMVKNCNKFYDVHSGDGCSAIASSQKVNLSSFYLWNPAVKTDCSGLQASVFVCIGTLTTSMSTTTSKLPTTTSKPSTTSKPPTGIITPTPTQNGMVKNCNKFYDVHSGDGCSAIASSQKVNLSSFYLWNPAVKTDCSGLQASVFVCVGTATTTTAAGITTPTPTQSGMVSGCNKFYDVHAGDGCSAIASSQKIALSSLYKWNPAVKTDCSGLQASVYICIGVGNAAAARVTGAAASFLEQKLISEEDLNSAVDHHHHHH,glycan array binding signal (z-score),[11],-0.234
same,glycan array binding signal (z-score),[12],-0.595
